These are yes or no findings as the source states them, for the method shown. In cells and extracts the contact can be indirect. Some binding calls cover weakened binding; strength is not graded here.

Amino acid sequences for entries named in this document (tags omitted).
UniProt Q9Y572: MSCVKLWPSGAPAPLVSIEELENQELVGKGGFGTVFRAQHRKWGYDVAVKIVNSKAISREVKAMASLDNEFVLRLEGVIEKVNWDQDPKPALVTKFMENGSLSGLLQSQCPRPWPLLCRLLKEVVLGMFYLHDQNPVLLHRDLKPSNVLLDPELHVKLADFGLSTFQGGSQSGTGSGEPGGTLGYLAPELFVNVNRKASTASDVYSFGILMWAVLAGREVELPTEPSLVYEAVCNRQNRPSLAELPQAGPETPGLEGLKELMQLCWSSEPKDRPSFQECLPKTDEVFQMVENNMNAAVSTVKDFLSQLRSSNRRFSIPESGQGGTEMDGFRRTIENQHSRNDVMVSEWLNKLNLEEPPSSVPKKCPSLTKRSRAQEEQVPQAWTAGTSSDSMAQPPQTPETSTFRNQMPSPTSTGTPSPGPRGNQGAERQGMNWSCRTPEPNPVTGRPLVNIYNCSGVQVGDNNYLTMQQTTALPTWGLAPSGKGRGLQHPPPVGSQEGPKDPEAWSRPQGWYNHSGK
UniProt Q13546: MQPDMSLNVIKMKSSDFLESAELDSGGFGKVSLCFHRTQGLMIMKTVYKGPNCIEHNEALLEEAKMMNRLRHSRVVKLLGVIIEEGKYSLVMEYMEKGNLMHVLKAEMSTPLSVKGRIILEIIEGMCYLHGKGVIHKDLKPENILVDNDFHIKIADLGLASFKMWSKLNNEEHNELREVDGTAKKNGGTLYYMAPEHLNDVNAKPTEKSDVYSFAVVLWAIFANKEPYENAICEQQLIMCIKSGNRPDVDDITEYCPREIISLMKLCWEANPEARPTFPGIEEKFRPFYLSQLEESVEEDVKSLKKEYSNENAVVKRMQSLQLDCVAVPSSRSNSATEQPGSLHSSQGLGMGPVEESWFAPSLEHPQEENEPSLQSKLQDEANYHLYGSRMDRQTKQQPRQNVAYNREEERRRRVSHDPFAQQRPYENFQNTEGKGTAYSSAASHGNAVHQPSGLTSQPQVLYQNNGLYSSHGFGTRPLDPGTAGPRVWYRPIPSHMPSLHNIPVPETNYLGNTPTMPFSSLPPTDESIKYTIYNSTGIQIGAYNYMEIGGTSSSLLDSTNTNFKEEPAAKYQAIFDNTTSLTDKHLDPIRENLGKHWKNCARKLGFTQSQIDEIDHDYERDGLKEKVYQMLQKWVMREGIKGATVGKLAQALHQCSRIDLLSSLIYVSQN
UniProt Q13158: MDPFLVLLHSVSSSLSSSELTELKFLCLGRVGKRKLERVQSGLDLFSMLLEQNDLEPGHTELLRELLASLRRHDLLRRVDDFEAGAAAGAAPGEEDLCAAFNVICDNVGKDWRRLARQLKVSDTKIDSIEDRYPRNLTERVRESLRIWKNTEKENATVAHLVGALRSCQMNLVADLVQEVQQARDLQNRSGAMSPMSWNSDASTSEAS
UniProt Q14790: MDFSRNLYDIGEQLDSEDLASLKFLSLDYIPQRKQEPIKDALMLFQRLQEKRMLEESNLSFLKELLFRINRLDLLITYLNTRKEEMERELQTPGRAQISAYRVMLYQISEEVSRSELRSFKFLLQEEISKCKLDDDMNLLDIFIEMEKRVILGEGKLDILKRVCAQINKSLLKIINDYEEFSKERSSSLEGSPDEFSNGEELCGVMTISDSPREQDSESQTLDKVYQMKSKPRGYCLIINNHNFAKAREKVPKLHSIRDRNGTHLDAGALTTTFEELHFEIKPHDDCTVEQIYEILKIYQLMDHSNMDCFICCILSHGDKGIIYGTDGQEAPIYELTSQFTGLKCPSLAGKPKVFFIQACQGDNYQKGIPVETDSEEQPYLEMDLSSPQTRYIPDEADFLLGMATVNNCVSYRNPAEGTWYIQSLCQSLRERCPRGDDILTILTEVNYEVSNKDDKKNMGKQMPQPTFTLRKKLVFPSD
UniProt P19474: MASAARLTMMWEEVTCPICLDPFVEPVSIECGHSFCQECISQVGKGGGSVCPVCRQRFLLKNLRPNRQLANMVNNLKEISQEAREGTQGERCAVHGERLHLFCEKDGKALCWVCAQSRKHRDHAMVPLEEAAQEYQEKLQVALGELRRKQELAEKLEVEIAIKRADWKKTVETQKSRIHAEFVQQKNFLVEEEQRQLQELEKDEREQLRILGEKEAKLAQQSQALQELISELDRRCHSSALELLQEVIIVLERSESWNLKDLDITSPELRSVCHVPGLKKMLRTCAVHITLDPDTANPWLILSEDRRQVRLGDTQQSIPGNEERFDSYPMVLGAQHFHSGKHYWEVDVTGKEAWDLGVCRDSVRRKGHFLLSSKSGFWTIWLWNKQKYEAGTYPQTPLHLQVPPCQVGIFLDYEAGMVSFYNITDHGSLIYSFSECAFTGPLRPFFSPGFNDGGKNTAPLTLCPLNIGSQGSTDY

Assay [1] addresses receptor-interacting serine/threonine-protein kinase 3 (human (endogenous in HT29)) (UniProt Q9Y572). The assay can be described thus: co-IP; HT29 cell lysate (RIPA buffer, 4 mg) incubated with anti-RIPK3 antibody (Pierce PA1-41533) 3 h at 4°C, Protein G Dynabeads overnight at 4°C, glycine pH 2.5 elution, western blot; cells untreated (0 min) or treated with TRAIL-SK (500 ng/ml), z-VAD-fmk (25 µM) and Birinapant (1 µM) (TzB) for the indicated times (0, 2, 3 h). For orientation: Immunoblotting shows a protein as a band on a membrane.

Assay [2] deals with receptor-interacting serine/threonine-protein kinase 1 (human (endogenous in HT29)) (UniProt Q13546). The assay is described as follows: co-IP; 4 mg of HT29 cell lysate immunoprecipitated with an anti-RIPK1 antibody, western blot; cells untreated (0 min) or treated with TRAIL-SK (500 ng/ml), z-VAD-fmk (25 µM) and Birinapant (1 µM) (TzB) for the indicated times.

Consider “Fas-associated with death domain protein (from UniProt Q13158 1-208)”, for which the binding result in assay [1] was “binds”.

In the case of “caspase-8 (from UniProt Q14790 1-479) (enzyme)”, the binding result in assay [1] was “binds”.

As to “receptor-interacting serine/threonine-protein kinase 1 (from UniProt Q13546 1-671)”, the binding result in assay [1] is given as “binds”.

Consider “receptor-interacting serine/threonine-protein kinase 3 (from UniProt Q9Y572 1-518)”, for which the binding result in assay [2] is given as “binds”.

On to “tripartite motif containing 21 (from UniProt P19474 1-475)”, for which the binding result in assay [1] is given as “binds”.

(Values after article PMC8082149.)
